Source: ChEMBL document CHEMBL4316593 (Eur J Med Chem, 2019)
The source gives many values for each of these; only a part stands here.

What was measured:
Assay type in all cases: cell-based
Conditions in all cases: U-87MG ATCC
[1] = Inhibition of RTK/PI3K/AKT/mTOR signaling in human U87 cells assessed as up regulation of LOC728084 gene expression at cytotoxic IC50 measured after 48 hrs relative to control
[2] = Inhibition of RTK/PI3K/AKT/mTOR signaling in human U87 cells assessed as up regulation of CNOT2 gene expression at cytotoxic IC50 measured after 48 hrs relative to control
[3] = Inhibition of RTK/PI3K/AKT/mTOR signaling in human U87 cells assessed as down regulation of NEK9 gene expression at cytotoxic IC50 measured after 48 hrs relative to control
[4] = Inhibition of RTK/PI3K/AKT/mTOR signaling in human U87 cells assessed as up regulation of latent transforming growth factor beta binding protein 4 gene expression at cytotoxic IC50 measured after 48 hrs relative to control
[5] = Inhibition of RTK/PI3K/AKT/mTOR signaling in human U87 cells assessed as up regulation of lysine acetyltransferase 2A gene expression at cytotoxic IC50 measured after 48 hrs relative to control
[6] = Inhibition of RTK/PI3K/AKT/mTOR signaling in human U87 cells assessed as up regulation of GAS7 gene expression at cytotoxic IC50 measured after 48 hrs relative to control
[7] = Inhibition of RTK/PI3K/AKT/mTOR signaling in human U87 cells assessed as down regulation of SLC16A14 gene expression at cytotoxic IC50 measured after 48 hrs relative to control
[8] = Inhibition of RTK/PI3K/AKT/mTOR signaling in human U87 cells assessed as down regulation of LPIN1 gene expression at cytotoxic IC50 measured after 48 hrs relative to control
[9] = Inhibition of RTK/PI3K/AKT/mTOR signaling in human U87 cells assessed as down regulation of TMEM106C gene expression at cytotoxic IC50 measured after 48 hrs relative to control
[10] = Inhibition of RTK/PI3K/AKT/mTOR signaling in human U87 cells assessed as down regulation of PFKFB2 gene expression at cytotoxic IC50 measured after 48 hrs relative to control
[11] = Inhibition of RTK/PI3K/AKT/mTOR signaling in human U87 cells assessed as down regulation of GNPTAB gene expression at cytotoxic IC50 measured after 48 hrs relative to control
[12] = Inhibition of RTK/PI3K/AKT/mTOR signaling in human U87 cells assessed as up regulation of SYNE3 gene expression at cytotoxic IC50 measured after 48 hrs relative to control
[13] = Inhibition of RTK/PI3K/AKT/mTOR signaling in human U87 cells assessed as up regulation of ribosomal protein L34 gene expression at cytotoxic IC50 measured after 48 hrs relative to control
[14] = Inhibition of RTK/PI3K/AKT/mTOR signaling in human U87 cells assessed as up regulation of BRD4 interacting chromatin remodelling complex associated protein like gene expression at cytotoxic IC50 measured after 48 hrs relative to control
[15] = Inhibition of RTK/PI3K/AKT/mTOR signaling in human U87 cells assessed as up regulation of solute carrier family 15 member 4 gene expression at cytotoxic IC50 measured after 48 hrs relative to control
[16] = Inhibition of RTK/PI3K/AKT/mTOR signaling in human U87 cells assessed as up regulation of damage specific DNA binding protein 2 gene expression at cytotoxic IC50 measured after 48 hrs relative to control
[17] = Inhibition of RTK/PI3K/AKT/mTOR signaling in human U87 cells assessed as up regulation of tRNA-histidine guanylyltransferase 1 like gene expression at cytotoxic IC50 measured after 48 hrs relative to control
[18] = Inhibition of RTK/PI3K/AKT/mTOR signaling in human U87 cells assessed as up regulation of LIM and calponin homology domains 1 gene expression at cytotoxic IC50 measured after 48 hrs relative to control
[19] = Inhibition of RTK/PI3K/AKT/mTOR signaling in human U87 cells assessed as down regulation of RRM2 gene expression at cytotoxic IC50 measured after 48 hrs relative to control
[20] = Inhibition of RTK/PI3K/AKT/mTOR signaling in human U87 cells assessed as up regulation of catechol-O-methyltransferase gene expression at cytotoxic IC50 measured after 48 hrs relative to control
[21] = Inhibition of RTK/PI3K/AKT/mTOR signaling in human U87 cells assessed as up regulation of inositol polyphosphate-4-phosphatase type II B gene expression at cytotoxic IC50 measured after 48 hrs relative to control
[22] = Inhibition of RTK/PI3K/AKT/mTOR signaling in human U87 cells assessed as up regulation of ring finger protein 207 gene expression at cytotoxic IC50 measured after 48 hrs relative to control
[23] = Inhibition of RTK/PI3K/AKT/mTOR signaling in human U87 cells assessed as down regulation of TMEM106B gene expression at cytotoxic IC50 measured after 48 hrs relative to control
[24] = Inhibition of RTK/PI3K/AKT/mTOR signaling in human U87 cells assessed as down regulation of IK gene expression at cytotoxic IC50 measured after 48 hrs relative to control
[25] = Inhibition of RTK/PI3K/AKT/mTOR signaling in human U87 cells assessed as down regulation of DUSP14 gene expression at cytotoxic IC50 measured after 48 hrs relative to control
[26] = Inhibition of RTK/PI3K/AKT/mTOR signaling in human U87 cells assessed as down regulation of BRAP gene expression at cytotoxic IC50 measured after 48 hrs relative to control
[27] = Inhibition of RTK/PI3K/AKT/mTOR signaling in human U87 cells assessed as up regulation of sorting nexin 25 gene expression at cytotoxic IC50 measured after 48 hrs relative to control
[28] = Inhibition of RTK/PI3K/AKT/mTOR signaling in human U87 cells assessed as up regulation of AMZ2 gene expression at cytotoxic IC50 measured after 48 hrs relative to control
[29] = Inhibition of RTK/PI3K/AKT/mTOR signaling in human U87 cells assessed as down regulation of DPY19L2P2 gene expression at cytotoxic IC50 measured after 48 hrs relative to control
[30] = Inhibition of RTK/PI3K/AKT/mTOR signaling in human U87 cells assessed as up regulation of ninjurin 1 gene expression at cytotoxic IC50 measured after 48 hrs relative to control
[31] = Inhibition of RTK/PI3K/AKT/mTOR signaling in human U87 cells assessed as down regulation of FAM126B gene expression at cytotoxic IC50 measured after 48 hrs relative to control
[32] = Inhibition of RTK/PI3K/AKT/mTOR signaling in human U87 cells assessed as down regulation of ZNF800 gene expression at cytotoxic IC50 measured after 48 hrs relative to control

CC(=O)C(=NNc1ccccc1C#N)C(C)=O
log2FC [1]: 2.84 | log2FC [2]: 0.602 | log2FC [3]: -0.654 | log2FC [4]: 0.931 | log2FC [5]: 0.897 | log2FC [6]: 1.72 | log2FC [7]: -2.77 | log2FC [8]: -1.09 | log2FC [9]: -0.795 | log2FC [10]: -0.925 | log2FC [11]: -1.02 | log2FC [12]: 2.31 | log2FC [13]: 0.704 | log2FC [14]: 1.02 | log2FC [15]: 0.914 | log2FC [16]: 1.15 | log2FC [17]: 0.933 | log2FC [18]: 1.56 | log2FC [19]: -1.39 | log2FC [20]: 0.905 | log2FC [21]: 1.29 | log2FC [22]: 1.17 | log2FC [23]: -0.742 | log2FC [24]: -0.552 | log2FC [25]: -0.678 | log2FC [26]: -0.911 | log2FC [27]: 0.782 | log2FC [28]: 0.599 | log2FC [29]: -4.78 | log2FC [30]: 0.818 | log2FC [31]: -1.29 | log2FC [32]: -1.12
